Test results: patent US20150104466A1, “CYTOMEGALOVIRUS DISINTEGRIN-LIKE PEPTIDES” (priority 2013, published 2015)
Results are given in words; binding and its absence hold for the method and conditions named. For some assays here: In cells and extracts the contact can be indirect. Some entries that bind do so weakly or less than the wild type.

The chains behind the UniProt entries cited, without tags or fusion partners. Residues count along the entry.
UniProt P05556: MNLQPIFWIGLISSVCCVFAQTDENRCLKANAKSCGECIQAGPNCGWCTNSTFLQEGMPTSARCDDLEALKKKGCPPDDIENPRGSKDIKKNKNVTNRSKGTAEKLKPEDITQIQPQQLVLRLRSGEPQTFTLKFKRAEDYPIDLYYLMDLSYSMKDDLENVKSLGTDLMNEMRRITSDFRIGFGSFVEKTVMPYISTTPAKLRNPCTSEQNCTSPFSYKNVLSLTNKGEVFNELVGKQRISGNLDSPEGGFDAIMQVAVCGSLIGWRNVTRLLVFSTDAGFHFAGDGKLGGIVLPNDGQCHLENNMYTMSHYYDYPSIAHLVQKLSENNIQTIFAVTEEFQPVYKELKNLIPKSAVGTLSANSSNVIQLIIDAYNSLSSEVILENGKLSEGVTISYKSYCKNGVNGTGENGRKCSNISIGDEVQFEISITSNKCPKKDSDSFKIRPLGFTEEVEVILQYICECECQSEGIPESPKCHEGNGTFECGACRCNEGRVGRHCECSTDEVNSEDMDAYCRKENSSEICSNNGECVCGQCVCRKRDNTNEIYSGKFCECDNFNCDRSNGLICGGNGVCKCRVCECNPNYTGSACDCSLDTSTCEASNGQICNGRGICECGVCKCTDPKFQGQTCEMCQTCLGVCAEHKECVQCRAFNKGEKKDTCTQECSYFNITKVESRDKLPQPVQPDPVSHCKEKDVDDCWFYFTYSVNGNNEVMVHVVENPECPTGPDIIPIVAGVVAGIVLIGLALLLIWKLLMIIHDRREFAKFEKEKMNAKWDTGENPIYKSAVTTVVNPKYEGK
UniProt P06473, residues 57-146: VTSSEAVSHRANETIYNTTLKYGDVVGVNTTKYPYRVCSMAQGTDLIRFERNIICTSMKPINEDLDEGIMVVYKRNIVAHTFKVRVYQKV

Legend:
[1] = target: β1 integrin (human) (UniProt P05556); experiment: His-tag pull-down on nickel beads from NHDF lysate, Western blot for β1 integrin
[2] = target: β1 integrin (human) (UniProt P05556); experiment: Western blot of the pull-down (legend of FIG. 10)

Substance: HCMV AD169 glycoprotein B disintegrin-like domain (amino acids 57-146), His-tagged, expressed in E. coli (from UniProt P06473 57-146)
- binding [1]: binds
- binding [2]: binds
